# Measurements as given in paper PMC9641203.
# For at least one entry, the source does not settle the construct or the ends of the probe. Tags and fusion partners may be left off the protein sequences shown.
# Test system: T1, EdeB (ParB family protein) (Brevibacillus brevis X23)
# T1 sequence (looked up): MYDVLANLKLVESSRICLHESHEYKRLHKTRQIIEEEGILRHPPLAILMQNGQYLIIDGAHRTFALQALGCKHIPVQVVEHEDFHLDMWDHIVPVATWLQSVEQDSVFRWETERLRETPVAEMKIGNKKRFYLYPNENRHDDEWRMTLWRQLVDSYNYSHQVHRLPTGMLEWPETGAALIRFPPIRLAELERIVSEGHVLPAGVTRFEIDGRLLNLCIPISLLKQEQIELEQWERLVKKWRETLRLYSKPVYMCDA
# Assay: EMSA
# Details: salmon sperm DNA as nonspecific competitor, 5 mM MgCl2, 50 mM EDTA (so in the source); 10 mM Tris pH 7.5, 5 mM MgCl2, 50 mM EDTA, 60 mM KCl, 10 mM DTT, 10% glycerol, sheared salmon sperm DNA, 20 uL, on ice 10 min; 8% TBE PAGE, 0.5x TBE; recombinant protein; residues 1-256; protein details: C-terminal His6 (from primer edeB-R, pET28a); label: 6-FAM 5' end; probe letters rebuilt from the primers and the genome
sequence,measurement,value
CCATTCTATGCAGCGCTAGAAAATGGAAAAAAGAGATGGAATTCATCTAATTTTCAGAAATAACATTTAATGGAAAATTCATTTGACACTATAGAAGAGTCATCGATATAGTTGGGATGGAAGTATTTGTAATCAATTAGATTTTTTGCCATATCCGAATTGTGATTACATCTGCACAATTCCGAAAGGGGGGAAATGCATTGCATCAGGATAAGAAGC (double strand) [edePro (ede BGC promoter)],binding result,binds
